These are yes or no findings as the source states them, for the method shown. For some of these results: Where a sequence is shown, tags or fusion partners need not be part of it.
What was measured:
Assay in all cases: AlphaScreen or HTRF; dilution series of GST-YB-1 or GST-YB-1 CSD against a fixed partner (80 nM His-IN, 2 nM JPO2-MBP, 100 nM His-TRN, His-LEDGF/p75, His-LEDGF/p52, His-Menin); the legend does not name the method, the text cites S2 Fig with the AlphaScreen assay; both purified
[1] = target: T1, 6xHistidine-tagged Transportin-SR2 (His-TRN) (UniProt Q9Y5L0)
T1 sequence: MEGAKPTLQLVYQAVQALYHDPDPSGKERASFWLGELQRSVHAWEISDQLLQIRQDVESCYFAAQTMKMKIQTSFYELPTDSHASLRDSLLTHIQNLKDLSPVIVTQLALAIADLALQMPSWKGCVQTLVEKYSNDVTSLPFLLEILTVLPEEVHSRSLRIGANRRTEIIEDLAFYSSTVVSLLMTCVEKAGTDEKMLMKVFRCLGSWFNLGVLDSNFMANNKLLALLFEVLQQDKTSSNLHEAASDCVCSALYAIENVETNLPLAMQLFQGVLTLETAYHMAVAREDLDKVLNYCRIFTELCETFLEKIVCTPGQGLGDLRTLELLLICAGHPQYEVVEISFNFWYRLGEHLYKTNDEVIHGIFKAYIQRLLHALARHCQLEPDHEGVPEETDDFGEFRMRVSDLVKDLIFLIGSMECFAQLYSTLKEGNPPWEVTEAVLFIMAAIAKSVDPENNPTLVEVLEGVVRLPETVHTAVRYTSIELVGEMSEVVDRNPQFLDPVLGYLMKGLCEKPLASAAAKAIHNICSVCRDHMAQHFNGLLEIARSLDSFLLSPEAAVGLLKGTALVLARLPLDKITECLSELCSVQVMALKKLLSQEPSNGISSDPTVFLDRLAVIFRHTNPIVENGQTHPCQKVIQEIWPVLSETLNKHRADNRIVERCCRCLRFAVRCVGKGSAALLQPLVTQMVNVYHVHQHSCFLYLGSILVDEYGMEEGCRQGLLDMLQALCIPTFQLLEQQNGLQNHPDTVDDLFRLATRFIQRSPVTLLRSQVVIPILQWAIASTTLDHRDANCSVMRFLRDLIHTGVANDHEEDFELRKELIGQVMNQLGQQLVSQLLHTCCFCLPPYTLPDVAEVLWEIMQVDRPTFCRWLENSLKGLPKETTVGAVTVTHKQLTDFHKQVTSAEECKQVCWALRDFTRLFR

By UniProt entry, the sequences of proteins in these tests, tags left out. Where a name states a change or a piece, a line headed by the entry shows the natural chain unless it says otherwise.
UniProt O75475: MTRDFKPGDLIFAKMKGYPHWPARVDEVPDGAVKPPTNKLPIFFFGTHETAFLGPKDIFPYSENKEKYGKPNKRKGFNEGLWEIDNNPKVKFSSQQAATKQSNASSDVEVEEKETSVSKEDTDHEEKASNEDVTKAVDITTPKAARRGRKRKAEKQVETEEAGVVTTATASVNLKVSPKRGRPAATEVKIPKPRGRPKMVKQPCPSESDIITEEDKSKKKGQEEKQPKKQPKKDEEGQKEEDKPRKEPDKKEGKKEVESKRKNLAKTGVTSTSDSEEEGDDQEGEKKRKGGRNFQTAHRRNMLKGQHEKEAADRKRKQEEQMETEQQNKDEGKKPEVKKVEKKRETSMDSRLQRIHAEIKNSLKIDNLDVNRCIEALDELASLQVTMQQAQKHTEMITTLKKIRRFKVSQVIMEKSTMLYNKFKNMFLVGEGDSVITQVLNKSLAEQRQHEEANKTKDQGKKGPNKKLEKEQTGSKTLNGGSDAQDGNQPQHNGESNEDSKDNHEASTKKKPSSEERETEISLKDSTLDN
UniProt P67809: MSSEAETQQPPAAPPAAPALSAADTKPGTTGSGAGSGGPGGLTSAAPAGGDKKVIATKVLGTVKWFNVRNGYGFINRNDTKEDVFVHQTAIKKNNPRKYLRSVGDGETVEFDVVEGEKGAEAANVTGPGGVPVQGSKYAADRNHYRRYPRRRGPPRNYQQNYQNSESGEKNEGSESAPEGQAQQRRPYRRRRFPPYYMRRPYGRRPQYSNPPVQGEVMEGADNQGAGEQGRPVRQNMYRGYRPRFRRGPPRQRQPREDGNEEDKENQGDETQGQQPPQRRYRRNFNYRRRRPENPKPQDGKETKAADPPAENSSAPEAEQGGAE

recombinant His-Menin = target: T2, recombinant His-Menin (UniProt O00255)
T2 sequence: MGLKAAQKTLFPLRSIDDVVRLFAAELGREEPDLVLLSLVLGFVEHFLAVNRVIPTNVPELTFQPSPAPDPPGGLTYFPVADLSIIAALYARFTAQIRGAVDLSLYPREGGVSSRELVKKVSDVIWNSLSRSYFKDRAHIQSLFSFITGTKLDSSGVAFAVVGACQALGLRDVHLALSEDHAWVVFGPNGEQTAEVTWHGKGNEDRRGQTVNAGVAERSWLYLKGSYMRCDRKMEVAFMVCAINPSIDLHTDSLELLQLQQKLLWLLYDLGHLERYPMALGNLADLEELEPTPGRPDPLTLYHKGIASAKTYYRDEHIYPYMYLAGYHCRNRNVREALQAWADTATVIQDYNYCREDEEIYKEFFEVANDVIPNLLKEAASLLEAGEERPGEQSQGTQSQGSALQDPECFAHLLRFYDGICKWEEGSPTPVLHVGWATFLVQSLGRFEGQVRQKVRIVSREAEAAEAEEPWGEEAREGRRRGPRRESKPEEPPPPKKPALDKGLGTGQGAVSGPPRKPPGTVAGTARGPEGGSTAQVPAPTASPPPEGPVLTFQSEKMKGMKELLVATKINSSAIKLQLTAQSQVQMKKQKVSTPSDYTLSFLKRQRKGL

[2] = target: recombinant His-LEDGF/p75 (UniProt O75475)
[3] = target: T3, Cell division cycle-associated 7-like protein (CDCA7L/JPO2), JPO2-MBP (UniProt Q96GN5)
T3 sequence: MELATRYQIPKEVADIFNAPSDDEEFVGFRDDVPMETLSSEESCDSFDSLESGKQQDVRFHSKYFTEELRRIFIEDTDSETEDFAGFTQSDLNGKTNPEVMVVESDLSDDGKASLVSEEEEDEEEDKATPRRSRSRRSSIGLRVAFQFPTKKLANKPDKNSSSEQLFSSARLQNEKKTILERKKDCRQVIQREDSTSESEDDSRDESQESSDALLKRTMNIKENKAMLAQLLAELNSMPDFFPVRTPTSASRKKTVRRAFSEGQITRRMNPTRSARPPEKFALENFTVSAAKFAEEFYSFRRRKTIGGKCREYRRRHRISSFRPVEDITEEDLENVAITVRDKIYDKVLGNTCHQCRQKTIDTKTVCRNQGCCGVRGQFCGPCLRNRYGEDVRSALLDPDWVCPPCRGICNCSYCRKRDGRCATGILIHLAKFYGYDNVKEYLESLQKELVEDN

| binding [1] | binding (recombinant His-Menin) | binding [2] | binding [3] | Substance |
| --- | --- | --- | --- | --- |
| no binding | no binding | no binding |  | YB-1 cold shock domain (GST-YB-1 CSD) (from UniProt P67809 61-125) (domain or fragment) |
|  |  |  | no binding | recombinant GST-YB-1 (from UniProt P67809 1-324) |
